# Data published in the supplement of paper PMC12067093, “Discovery and optimisation of a covalent ligand for TRIM25 and its application to targeted protein ubiquitination” (Chemical Science, 2025).
# The chains behind the UniProt entries cited, without tags or fusion partners. Where a name states a change or a piece, a line headed by the entry shows the natural chain unless it says otherwise.
# UniProt O75592: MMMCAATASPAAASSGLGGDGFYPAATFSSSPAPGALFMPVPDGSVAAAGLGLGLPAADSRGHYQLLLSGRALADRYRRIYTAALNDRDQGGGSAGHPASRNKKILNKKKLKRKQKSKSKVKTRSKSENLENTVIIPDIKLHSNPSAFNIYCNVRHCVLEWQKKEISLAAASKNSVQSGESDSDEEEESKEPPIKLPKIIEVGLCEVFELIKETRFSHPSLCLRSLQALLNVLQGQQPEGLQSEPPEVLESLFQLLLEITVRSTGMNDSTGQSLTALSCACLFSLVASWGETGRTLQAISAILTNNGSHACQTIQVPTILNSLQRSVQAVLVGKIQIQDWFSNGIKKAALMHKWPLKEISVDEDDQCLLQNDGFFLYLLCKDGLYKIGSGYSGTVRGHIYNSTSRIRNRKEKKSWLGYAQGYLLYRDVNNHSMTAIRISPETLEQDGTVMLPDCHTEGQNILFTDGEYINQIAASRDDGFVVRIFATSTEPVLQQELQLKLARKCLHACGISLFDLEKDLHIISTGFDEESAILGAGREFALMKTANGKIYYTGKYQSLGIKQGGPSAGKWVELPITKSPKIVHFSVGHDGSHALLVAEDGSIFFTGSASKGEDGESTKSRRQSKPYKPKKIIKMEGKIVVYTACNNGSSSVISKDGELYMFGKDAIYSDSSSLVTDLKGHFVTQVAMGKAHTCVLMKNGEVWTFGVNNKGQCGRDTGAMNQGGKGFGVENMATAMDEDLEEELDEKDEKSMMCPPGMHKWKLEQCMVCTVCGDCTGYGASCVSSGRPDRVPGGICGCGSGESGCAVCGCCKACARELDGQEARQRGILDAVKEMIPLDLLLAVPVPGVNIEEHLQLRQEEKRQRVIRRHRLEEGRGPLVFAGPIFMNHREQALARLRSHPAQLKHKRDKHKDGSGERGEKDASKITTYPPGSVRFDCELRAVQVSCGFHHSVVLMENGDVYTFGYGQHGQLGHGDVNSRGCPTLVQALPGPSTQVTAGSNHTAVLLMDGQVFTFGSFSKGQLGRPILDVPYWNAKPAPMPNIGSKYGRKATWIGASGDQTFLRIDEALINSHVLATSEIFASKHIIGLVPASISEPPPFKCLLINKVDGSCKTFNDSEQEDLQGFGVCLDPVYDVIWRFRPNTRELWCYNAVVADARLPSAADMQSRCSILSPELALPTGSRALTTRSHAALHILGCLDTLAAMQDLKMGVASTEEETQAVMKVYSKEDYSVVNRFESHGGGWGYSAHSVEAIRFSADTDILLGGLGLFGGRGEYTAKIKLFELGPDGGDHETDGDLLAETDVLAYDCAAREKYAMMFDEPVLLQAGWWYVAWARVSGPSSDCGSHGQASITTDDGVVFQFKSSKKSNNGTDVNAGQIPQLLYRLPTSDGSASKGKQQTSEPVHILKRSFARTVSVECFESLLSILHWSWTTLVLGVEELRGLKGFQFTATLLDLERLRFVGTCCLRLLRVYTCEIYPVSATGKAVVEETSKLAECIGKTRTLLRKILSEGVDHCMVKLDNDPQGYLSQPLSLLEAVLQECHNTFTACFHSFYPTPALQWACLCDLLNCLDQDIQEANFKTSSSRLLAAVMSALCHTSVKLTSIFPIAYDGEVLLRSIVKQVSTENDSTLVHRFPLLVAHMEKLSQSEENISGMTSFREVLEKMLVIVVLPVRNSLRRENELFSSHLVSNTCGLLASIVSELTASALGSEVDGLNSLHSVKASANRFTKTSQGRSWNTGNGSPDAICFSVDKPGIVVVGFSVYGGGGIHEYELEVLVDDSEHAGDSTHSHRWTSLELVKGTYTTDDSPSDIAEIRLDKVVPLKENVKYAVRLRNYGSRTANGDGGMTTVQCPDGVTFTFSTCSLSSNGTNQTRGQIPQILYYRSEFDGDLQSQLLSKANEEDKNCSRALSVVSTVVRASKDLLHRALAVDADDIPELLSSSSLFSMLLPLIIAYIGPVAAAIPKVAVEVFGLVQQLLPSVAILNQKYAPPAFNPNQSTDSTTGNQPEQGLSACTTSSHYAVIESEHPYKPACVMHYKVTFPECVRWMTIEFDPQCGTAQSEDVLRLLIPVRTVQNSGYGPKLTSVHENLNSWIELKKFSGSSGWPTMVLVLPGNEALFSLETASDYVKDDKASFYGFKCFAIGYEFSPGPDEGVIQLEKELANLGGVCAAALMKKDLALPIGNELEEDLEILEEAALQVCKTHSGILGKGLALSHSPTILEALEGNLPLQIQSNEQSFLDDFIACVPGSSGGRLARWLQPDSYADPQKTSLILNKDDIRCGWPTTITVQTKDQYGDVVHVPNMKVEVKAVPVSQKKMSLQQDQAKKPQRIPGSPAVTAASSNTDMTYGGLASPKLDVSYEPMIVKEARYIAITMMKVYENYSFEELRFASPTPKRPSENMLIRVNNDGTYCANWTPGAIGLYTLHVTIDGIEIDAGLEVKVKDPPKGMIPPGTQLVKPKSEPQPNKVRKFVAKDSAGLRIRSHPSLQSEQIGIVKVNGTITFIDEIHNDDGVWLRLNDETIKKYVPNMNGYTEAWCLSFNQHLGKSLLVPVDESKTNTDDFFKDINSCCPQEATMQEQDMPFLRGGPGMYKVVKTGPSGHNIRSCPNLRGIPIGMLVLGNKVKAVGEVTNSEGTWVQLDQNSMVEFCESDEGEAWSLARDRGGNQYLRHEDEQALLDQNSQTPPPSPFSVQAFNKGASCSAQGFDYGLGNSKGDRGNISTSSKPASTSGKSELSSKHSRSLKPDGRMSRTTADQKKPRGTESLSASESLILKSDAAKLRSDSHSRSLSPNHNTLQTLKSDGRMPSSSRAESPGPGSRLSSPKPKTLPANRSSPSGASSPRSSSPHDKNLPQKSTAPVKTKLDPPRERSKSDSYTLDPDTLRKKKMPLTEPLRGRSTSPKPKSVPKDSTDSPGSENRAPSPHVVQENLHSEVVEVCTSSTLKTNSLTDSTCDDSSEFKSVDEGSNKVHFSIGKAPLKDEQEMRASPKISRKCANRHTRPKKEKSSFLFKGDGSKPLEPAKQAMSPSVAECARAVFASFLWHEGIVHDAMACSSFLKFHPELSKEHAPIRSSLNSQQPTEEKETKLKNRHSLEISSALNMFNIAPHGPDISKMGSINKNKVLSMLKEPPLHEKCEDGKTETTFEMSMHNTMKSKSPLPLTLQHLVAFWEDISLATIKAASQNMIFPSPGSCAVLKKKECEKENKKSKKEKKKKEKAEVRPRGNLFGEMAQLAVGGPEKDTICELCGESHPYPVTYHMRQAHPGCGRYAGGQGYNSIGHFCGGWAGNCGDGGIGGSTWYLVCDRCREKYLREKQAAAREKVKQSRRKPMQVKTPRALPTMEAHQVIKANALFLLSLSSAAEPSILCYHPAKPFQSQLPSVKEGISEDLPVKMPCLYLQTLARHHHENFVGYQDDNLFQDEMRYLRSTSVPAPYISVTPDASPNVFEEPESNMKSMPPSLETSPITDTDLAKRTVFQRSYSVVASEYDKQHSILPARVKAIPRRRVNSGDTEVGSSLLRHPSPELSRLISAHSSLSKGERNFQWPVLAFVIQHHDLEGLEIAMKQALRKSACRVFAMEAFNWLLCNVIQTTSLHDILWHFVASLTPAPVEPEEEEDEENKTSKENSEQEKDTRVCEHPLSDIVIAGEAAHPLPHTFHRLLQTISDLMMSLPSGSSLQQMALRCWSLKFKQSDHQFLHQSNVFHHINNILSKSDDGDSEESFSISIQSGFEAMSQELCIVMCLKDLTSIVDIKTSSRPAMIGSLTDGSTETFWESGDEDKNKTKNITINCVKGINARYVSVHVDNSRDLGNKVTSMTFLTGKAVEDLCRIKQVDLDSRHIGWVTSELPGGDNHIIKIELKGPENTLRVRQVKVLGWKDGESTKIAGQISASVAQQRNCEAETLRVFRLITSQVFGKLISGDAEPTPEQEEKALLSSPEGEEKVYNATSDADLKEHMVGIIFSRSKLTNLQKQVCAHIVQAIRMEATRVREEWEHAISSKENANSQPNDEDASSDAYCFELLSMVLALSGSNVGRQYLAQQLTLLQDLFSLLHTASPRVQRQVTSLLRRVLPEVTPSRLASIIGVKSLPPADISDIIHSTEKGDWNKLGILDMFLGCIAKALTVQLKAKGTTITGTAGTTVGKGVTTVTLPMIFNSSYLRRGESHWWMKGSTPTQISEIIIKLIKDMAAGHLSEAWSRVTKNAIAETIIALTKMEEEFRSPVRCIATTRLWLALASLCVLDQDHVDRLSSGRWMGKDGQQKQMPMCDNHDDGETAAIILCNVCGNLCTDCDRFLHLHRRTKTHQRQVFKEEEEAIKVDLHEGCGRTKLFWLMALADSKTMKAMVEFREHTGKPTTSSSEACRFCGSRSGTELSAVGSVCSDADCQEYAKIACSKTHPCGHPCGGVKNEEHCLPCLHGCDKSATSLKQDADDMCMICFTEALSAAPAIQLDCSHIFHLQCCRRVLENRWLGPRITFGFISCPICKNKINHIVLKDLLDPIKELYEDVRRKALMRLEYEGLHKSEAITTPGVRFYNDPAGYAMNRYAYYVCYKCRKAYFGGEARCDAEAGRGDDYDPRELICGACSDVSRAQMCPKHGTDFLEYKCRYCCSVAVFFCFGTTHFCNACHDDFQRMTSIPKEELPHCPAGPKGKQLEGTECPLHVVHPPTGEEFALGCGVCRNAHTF
# UniProt Q9Y217: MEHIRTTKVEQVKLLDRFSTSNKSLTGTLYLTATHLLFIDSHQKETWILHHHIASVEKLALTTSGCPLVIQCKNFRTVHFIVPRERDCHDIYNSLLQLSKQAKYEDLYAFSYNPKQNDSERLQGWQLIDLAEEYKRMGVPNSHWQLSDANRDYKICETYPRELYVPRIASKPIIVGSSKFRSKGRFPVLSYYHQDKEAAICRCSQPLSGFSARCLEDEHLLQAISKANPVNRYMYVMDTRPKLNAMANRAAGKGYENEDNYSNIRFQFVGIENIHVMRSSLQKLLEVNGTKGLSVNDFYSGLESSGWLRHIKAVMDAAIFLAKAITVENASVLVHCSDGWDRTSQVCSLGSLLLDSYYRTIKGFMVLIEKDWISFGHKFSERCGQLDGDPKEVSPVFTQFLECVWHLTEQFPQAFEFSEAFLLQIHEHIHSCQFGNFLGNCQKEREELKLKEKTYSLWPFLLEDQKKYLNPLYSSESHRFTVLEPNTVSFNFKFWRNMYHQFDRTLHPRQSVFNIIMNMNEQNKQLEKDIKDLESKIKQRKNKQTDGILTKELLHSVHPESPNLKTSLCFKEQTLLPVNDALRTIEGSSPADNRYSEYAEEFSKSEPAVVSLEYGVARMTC
# UniProt Q9Y6C9: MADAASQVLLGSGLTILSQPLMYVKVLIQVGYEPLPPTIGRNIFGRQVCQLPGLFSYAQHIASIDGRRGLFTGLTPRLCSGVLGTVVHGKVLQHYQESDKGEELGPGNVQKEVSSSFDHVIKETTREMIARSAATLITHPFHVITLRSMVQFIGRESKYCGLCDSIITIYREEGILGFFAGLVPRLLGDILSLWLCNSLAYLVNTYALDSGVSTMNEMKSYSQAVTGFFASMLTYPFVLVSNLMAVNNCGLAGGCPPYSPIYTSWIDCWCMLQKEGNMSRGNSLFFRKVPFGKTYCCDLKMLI
# UniProt Q99836, whole entry, looked up: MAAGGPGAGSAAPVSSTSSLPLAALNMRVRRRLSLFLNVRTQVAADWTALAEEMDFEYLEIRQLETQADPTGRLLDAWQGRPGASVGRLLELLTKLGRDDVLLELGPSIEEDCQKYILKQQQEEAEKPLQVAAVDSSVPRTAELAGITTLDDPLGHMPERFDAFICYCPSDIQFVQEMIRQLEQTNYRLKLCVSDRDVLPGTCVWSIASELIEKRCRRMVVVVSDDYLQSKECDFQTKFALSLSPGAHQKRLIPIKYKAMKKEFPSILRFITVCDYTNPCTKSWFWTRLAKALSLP
# UniProt P10244: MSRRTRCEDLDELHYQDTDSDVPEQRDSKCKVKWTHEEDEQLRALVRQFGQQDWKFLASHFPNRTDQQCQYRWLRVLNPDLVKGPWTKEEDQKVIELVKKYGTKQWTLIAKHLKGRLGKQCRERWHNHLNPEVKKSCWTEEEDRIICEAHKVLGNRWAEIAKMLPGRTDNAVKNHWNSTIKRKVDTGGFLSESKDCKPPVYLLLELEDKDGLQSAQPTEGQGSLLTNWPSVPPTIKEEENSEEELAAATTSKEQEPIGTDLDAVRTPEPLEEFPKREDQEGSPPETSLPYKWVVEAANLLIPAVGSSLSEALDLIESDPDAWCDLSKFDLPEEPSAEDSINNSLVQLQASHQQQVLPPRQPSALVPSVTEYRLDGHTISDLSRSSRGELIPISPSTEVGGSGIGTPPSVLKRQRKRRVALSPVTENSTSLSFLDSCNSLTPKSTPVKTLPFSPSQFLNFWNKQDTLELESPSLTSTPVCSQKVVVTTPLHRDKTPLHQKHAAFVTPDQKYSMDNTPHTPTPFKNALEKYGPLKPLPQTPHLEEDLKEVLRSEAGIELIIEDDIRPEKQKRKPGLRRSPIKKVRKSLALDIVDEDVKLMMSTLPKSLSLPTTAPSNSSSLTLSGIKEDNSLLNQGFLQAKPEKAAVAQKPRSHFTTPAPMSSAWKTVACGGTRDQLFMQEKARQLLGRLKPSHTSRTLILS
# The other results are listed elsewhere or left out.
# Compound: CC1Cc2ccccc2N1C(=O)C1CCCN(C1)C(=O)CCl (mixture of isomers) [TRIM25 ligand 11 (diastereomer mixture)]
# Assay: probe-labelled cysteine peptide fold change vs DMSO (competition) (log2 fold change); higher = less target engagement (more negative = stronger competition)
# Details: 10 µM; THP-1; incubation time: 4 h
# 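Further: competitive chemoproteomic profiling in live THP-1 cells with an iodoacetamide desthiobiotin (IA-DTB) probe, comparing probe-labelled peptide intensities in compound-treated cells against DMSO-treated controls.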
row,Target,probe-labelled cysteine peptide fold change
1,MYCBP2_O75592_4544_YAYYVCYK (UniProt O75592),0.0433
2,MYCBP2_O75592_4652_QLEGTECPLHVVHPPTGEEFALGCGVCR (UniProt O75592),0.13
3,MSH2_P43246_176_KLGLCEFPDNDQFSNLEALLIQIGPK (UniProt P43246),-0.00362
4,MTHFD1L_Q6UB35_906_IDRYTQQGFGNLPICMAK (UniProt Q6UB35),-0.0975
5,MSH3_P20585_847_QGDYCRPTVQEER (UniProt P20585),-0.027
6,MTMR9_Q96QG7_30_VDNVVLHRPFYPAVEGTLCLTGHHLILSSR (UniProt Q96QG7),0.0178
7,MRPS28_Q9Y2Q9_122+124_FHCVCR (UniProt Q9Y2Q9),-0.112
8,MYCBP2_O75592_3241_DTICELCGESHPYPVTYHMR (UniProt O75592),0.0135
9,MYADM_Q96S97_279_SRDVSCSR (UniProt Q96S97),1.04
10,MTMR6_Q9Y217_383_CGQLDGDPK (UniProt Q9Y217),0.184
11,MYEF2_Q9P2K5_546_FSQCGHVMFAEIK (UniProt Q9P2K5),0.0506
12,MTCH2_Q9Y6C9_49_QVCQLPGLFSYAQHIASIDGRR (UniProt Q9Y6C9),-0.283
13,MYD88_Q99836_203_LCVSDRDVLPGTCVWSIASELIEK (UniProt Q99836),0.12
14,MTF2_Q9Y483_133_CGQGYHQLCHTPHIDSSVIDSDEK (UniProt Q9Y483),0.12
15,MYBL2_P10244_69_TDQQCQYR (UniProt P10244),0.0172
16,MYCBP2_O75592_938_FDCELR (UniProt O75592),0.338

# Single values from the list.
# Entry of MYBL2_P10244_69_TDQQCQYR (UniProt P10244) under probe-labelled cysteine peptide fold change: 0.0172
# Entry of MTCH2_Q9Y6C9_49_QVCQLPGLFSYAQHIASIDGRR (UniProt Q9Y6C9) under probe-labelled cysteine peptide fold change: -0.283
